Reference: PubChem BioAssay AID1508597 (Cure First, 2020)

- Purpose: 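Genes whose silencing sensitises or protects ovarian cancer cells against rucaparib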 (primary screen)
- Cells: human ovarian carcinoma lines grown from tumours: OCI-P5x (papillary serous) and OCI-C5x (clear cell)
- Reagents: siRNA pool against human genes, 1.25 pmol siRNA per well
- Duration: 72 h or 96 h, depending on the cell culture
- Conditions: rucaparib 20 µM (about IC30) or vehicle, present until read-out
- Read-out: 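Luminescent ATP-based viability assay read 72 or 96 h after transfection, depending on culture, given as normalised percent viability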
- Direction: viability, normalised: higher = more viable cells remaining
- Call rule: 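a well counts as a hit if its normalised viability is under 80 percent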
- Meaning of the calls: active = viability under 80%; inactive = viability 80% or more
Here is a random part of about 2,100 reagents tested. 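Calls flag viability under 80% in either arm, not effects specific to rucaparib; the reference for percent is not stated.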 No sequences are given here. The record does not give: the 100% reference.

target	rucaparib or vehicle	cell line	technical replicate	viability, normalised (%)	Call
DPF1 (GeneID 8193)	Rucaparib	OCI-C5x (clear cell)	1	56.4	active
DPF1 (GeneID 8193)	Rucaparib	OCI-C5x (clear cell)	2	50.7	active
DPF1 (GeneID 8193)	Rucaparib	OCI-C5x (clear cell)	3	42.9	active
DPF1 (GeneID 8193)	Rucaparib	OCI-P5x (serous)	1	76	active
DPF1 (GeneID 8193)	Rucaparib	OCI-P5x (serous)	2	78.6	active
DPF1 (GeneID 8193)	Rucaparib	OCI-P5x (serous)	3	62.9	active
DPF1 (GeneID 8193)	Vehicle	OCI-C5x (clear cell)	1	60.1	active
DPF1 (GeneID 8193)	Vehicle	OCI-C5x (clear cell)	2	54.4	active
DPF1 (GeneID 8193)	Vehicle	OCI-C5x (clear cell)	3	55.2	active
DPF1 (GeneID 8193)	Vehicle	OCI-P5x (serous)	1	55	active
DPF1 (GeneID 8193)	Vehicle	OCI-P5x (serous)	2	60.3	active
DPF1 (GeneID 8193)	Vehicle	OCI-P5x (serous)	3	61.3	active

Part of the list above, reformatted:
{"target": "DPF1 (GeneID 8193)", "rucaparib or vehicle": "Rucaparib", "cell line": "OCI-P5x (serous)", "technical replicate": "1", "viability, normalised (%)": 76, "Call": "active"}
{"target": "DPF1 (GeneID 8193)", "rucaparib or vehicle": "Rucaparib", "cell line": "OCI-P5x (serous)", "technical replicate": "2", "viability, normalised (%)": 78.6, "Call": "active"}

Continued:
target	rucaparib or vehicle	cell line	technical replicate	viability, normalised (%)	Call
SATB1 (GeneID 6304)	Rucaparib	OCI-C5x (clear cell)	1	55.8	active
SATB1 (GeneID 6304)	Rucaparib	OCI-C5x (clear cell)	2	47.3	active
SATB1 (GeneID 6304)	Rucaparib	OCI-C5x (clear cell)	3	39.6	active
SATB1 (GeneID 6304)	Rucaparib	OCI-P5x (serous)	1	48.2	active
SATB1 (GeneID 6304)	Rucaparib	OCI-P5x (serous)	2	50.6	active
SATB1 (GeneID 6304)	Rucaparib	OCI-P5x (serous)	3	66.2	active
SATB1 (GeneID 6304)	Vehicle	OCI-C5x (clear cell)	1	54.4	active
SATB1 (GeneID 6304)	Vehicle	OCI-C5x (clear cell)	2	55.8	active
SATB1 (GeneID 6304)	Vehicle	OCI-C5x (clear cell)	3	43.5	active
SATB1 (GeneID 6304)	Vehicle	OCI-P5x (serous)	1	63.8	active
SATB1 (GeneID 6304)	Vehicle	OCI-P5x (serous)	2	63.5	active
SATB1 (GeneID 6304)	Vehicle	OCI-P5x (serous)	3	75	active
